PubChem BioAssay AID1259254, NCATS, 2017

- Test: 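Finding genes that stop cells copying their DNA twice in one cycle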 (primary screen)
- Cells: human HCT116 colorectal cancer cells
- Reagent: single siRNA against human genes
- Time to read-out: 3 days
- Measured: 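Nuclei stained with Hoechst and imaged; cell-cycle phase assigned by DNA content; G2 share scaled per plate, non-targeting siRNA 0%, GMNN siRNA 100%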
- Direction: G2 robust z-score and G2 cells, % of GMNN control: higher = more G2 cells, more excess DNA replication; raw share of cells in G2: higher = larger share of cells with G2 DNA content
- Active means: 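An siRNA counts as active if its G2 robust z-score lies at least 5 MADs above the screen median; here such calls match roughly 38% of GMNN control or more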
Shown is an unselected part of about 59,000 deposited reagents. Of all reagents, about 1,550 (2.6%) were called active. 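G2 share is only a proxy for re-replication; each gene was hit by three separate siRNAs, and active genes were retested.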 The raw values are shown without normalisation. The numbers tell different reagents against one gene apart. The record does not give: the amount of reagent.

The first 4 entries, to show the layout:
gene,reagent,G2 robust z-score,"G2 cells, % of GMNN control",raw share of cells in G2 (%),Outcome
ZNF512B (zinc finger protein 512B),1,0.569,6.97,5.25,inactive
ZNF512B (zinc finger protein 512B),2,2.16,18.2,14.1,inactive
ZNF512B (zinc finger protein 512B),3,-0.189,1.64,4.15,inactive
ANAPC2 (anaphase promoting complex subunit 2),1,8.11,60,23.6,active

The listing, from the first entry:
gene,reagent,G2 robust z-score,"G2 cells, % of GMNN control",raw share of cells in G2 (%),Outcome
ZNF512B (zinc finger protein 512B),1,0.569,6.97,5.25,inactive
ZNF512B (zinc finger protein 512B),2,2.16,18.2,14.1,inactive
ZNF512B (zinc finger protein 512B),3,-0.189,1.64,4.15,inactive
ANAPC2 (anaphase promoting complex subunit 2),1,8.11,60,23.6,active
ANAPC2 (anaphase promoting complex subunit 2),2,1.93,16.6,13.7,inactive
ANAPC2 (anaphase promoting complex subunit 2),3,3.82,29.9,14.1,inactive
GPRIN2 (G protein regulated inducer of neurite outgrowth 2),1,-1.1,-4.75,3.18,inactive
GPRIN2 (G protein regulated inducer of neurite outgrowth 2),2,-0.27,1.07,4.39,inactive
GPRIN2 (G protein regulated inducer of neurite outgrowth 2),3,2.1,17.7,9.86,inactive
CHAT (choline O-acetyltransferase),1,4.99,38.1,17.2,inactive
CHAT (choline O-acetyltransferase),2,0.806,8.64,8.04,inactive
CHAT (choline O-acetyltransferase),3,4.47,34.4,17.6,inactive
HAND2 (heart and neural crest derivatives expressed 2),1,0.196,4.34,6.85,inactive
HAND2 (heart and neural crest derivatives expressed 2),2,1.59,14.1,8.02,inactive
HAND2 (heart and neural crest derivatives expressed 2),3,1.09,10.6,9.06,inactive
SAMD11 (sterile alpha motif domain containing 11),1,-0.752,-2.32,2.26,inactive
SAMD11 (sterile alpha motif domain containing 11),2,0.81,8.67,6.73,inactive
SAMD11 (sterile alpha motif domain containing 11),3,-0.985,-3.96,1.69,inactive
NOG (noggin),1,2.31,19.2,11.6,inactive
NOG (noggin),2,-0.591,-1.19,4.84,inactive
NOG (noggin),3,-0.792,-2.6,3.35,inactive
LMBR1L (limb development membrane protein 1 like),1,0.165,4.13,8.24,inactive
LMBR1L (limb development membrane protein 1 like),2,6.11,45.9,23.5,active
LMBR1L (limb development membrane protein 1 like),3,-1.59,-8.22,1.49,inactive
ZNF846 (zinc finger protein 846),1,-0.518,-0.679,3.36,inactive
ZNF846 (zinc finger protein 846),2,-0.721,-2.11,2.25,inactive
ZNF846 (zinc finger protein 846),3,4.02,31.3,12.7,inactive
PI4K2B (phosphatidylinositol 4-kinase type 2 beta),1,-1.18,-5.33,3.93,inactive
PI4K2B (phosphatidylinositol 4-kinase type 2 beta),2,-0.616,-1.37,4.69,inactive
PI4K2B (phosphatidylinositol 4-kinase type 2 beta),3,-0.415,0.048,3.7,inactive
SP110 (SP110 nuclear body protein),1,0.0671,3.44,6.29,inactive
SP110 (SP110 nuclear body protein),2,-0.0685,2.49,6.63,inactive
SP110 (SP110 nuclear body protein),3,-0.608,-1.31,3.72,inactive
LINC02871 (long independently transcribed non-coding RNA 2871),1,-0.52,-0.688,3.34,inactive
LINC02871 (long independently transcribed non-coding RNA 2871),2,-0.337,0.598,3.77,inactive
LINC02871 (long independently transcribed non-coding RNA 2871),3,0.399,5.77,4.91,inactive
TMEM255B (transmembrane protein 255B),1,2.31,19.2,11.9,inactive
TMEM255B (transmembrane protein 255B),2,2.18,18.3,10.3,inactive
TMEM255B (transmembrane protein 255B),3,0.559,6.9,6.28,inactive
ITPRID1 (ITPR interacting domain containing 1),1,-0.889,-3.29,2.39,inactive
ITPRID1 (ITPR interacting domain containing 1),2,1.17,11.2,6.95,inactive
ITPRID1 (ITPR interacting domain containing 1),3,-0.821,-2.81,2.3,inactive
KPNB1 (karyopherin subunit beta 1),1,2.47,20.3,12.4,inactive
KPNB1 (karyopherin subunit beta 1),2,2.44,20.1,11.6,inactive
KPNB1 (karyopherin subunit beta 1),3,1.45,13.1,10.7,inactive
REXO5 (RNA exonuclease 5),1,1.19,11.4,10.2,inactive
REXO5 (RNA exonuclease 5),2,-0.108,2.21,4.99,inactive
REXO5 (RNA exonuclease 5),3,2.05,17.4,11.2,inactive
CPA5 (carboxypeptidase A5),1,-0.531,-0.769,5.27,inactive
CPA5 (carboxypeptidase A5),2,1.04,10.3,7.87,inactive
CPA5 (carboxypeptidase A5),3,4.52,34.7,17.2,inactive
KREMEN2 (kringle containing transmembrane protein 2),1,-1.08,-4.61,2.72,inactive
KREMEN2 (kringle containing transmembrane protein 2),2,0.332,5.3,7.84,inactive
KREMEN2 (kringle containing transmembrane protein 2),3,-0.712,-2.04,3.48,inactive
HMMR (hyaluronan mediated motility receptor),1,1.2,11.4,9.18,inactive
HMMR (hyaluronan mediated motility receptor),2,0.374,5.6,6.26,inactive
HMMR (hyaluronan mediated motility receptor),3,3.4,26.9,15.9,inactive
ZCCHC12 (zinc finger CCHC-type containing 12),1,-0.616,-1.36,3.11,inactive
ZCCHC12 (zinc finger CCHC-type containing 12),2,-0.761,-2.39,2.16,inactive
ZCCHC12 (zinc finger CCHC-type containing 12),3,0.192,4.32,4.13,inactive
NFATC2 (nuclear factor of activated T cells 2),1,-0.869,-3.14,2.21,inactive
NFATC2 (nuclear factor of activated T cells 2),2,1.27,11.9,10.4,inactive
NFATC2 (nuclear factor of activated T cells 2),3,1.45,13.2,7.88,inactive
PSD4 (pleckstrin and Sec7 domain containing 4),1,-1.11,-4.83,2.6,inactive
PSD4 (pleckstrin and Sec7 domain containing 4),2,1,10,8.27,inactive
PSD4 (pleckstrin and Sec7 domain containing 4),3,5.74,43.3,18.4,active
CLRN3 (clarin 3),1,2.51,20.7,12.4,inactive
CLRN3 (clarin 3),2,-0.534,-0.791,3.09,inactive
CLRN3 (clarin 3),3,-0.27,1.07,2.13,inactive
RTF2 (replication termination factor 2),1,-0.554,-0.93,2.88,inactive
RTF2 (replication termination factor 2),2,-0.614,-1.35,3.12,inactive
RTF2 (replication termination factor 2),3,0.426,5.97,6.78,inactive
BBS2 (Bardet-Biedl syndrome 2),1,1.26,11.8,8.74,inactive
BBS2 (Bardet-Biedl syndrome 2),2,-0.499,-0.541,4.88,inactive
BBS2 (Bardet-Biedl syndrome 2),3,0.0803,3.53,5.31,inactive
AQP6 (aquaporin 6),1,-0.211,1.48,5.22,inactive
AQP6 (aquaporin 6),2,-0.874,-3.18,2.81,inactive
AQP6 (aquaporin 6),3,-0.0271,2.78,6.06,inactive
HES2 (hes family bHLH transcription factor 2),1,0.817,8.72,7.46,inactive
HES2 (hes family bHLH transcription factor 2),2,0.131,3.89,5.29,inactive
HES2 (hes family bHLH transcription factor 2),3,-0.51,-0.624,5.67,inactive
APOBEC3C (apolipoprotein B mRNA editing enzyme catalytic subunit 3C),1,-0.201,1.55,6.87,inactive
APOBEC3C (apolipoprotein B mRNA editing enzyme catalytic subunit 3C),2,3.34,26.5,13,inactive
APOBEC3C (apolipoprotein B mRNA editing enzyme catalytic subunit 3C),3,-0.435,-0.093,3.96,inactive
OR9Q2 (olfactory receptor family 9 subfamily Q member 2),1,0.272,4.88,5.35,inactive
OR9Q2 (olfactory receptor family 9 subfamily Q member 2),2,2.39,19.8,9.9,inactive
OR9Q2 (olfactory receptor family 9 subfamily Q member 2),3,-0.109,2.2,3.9,inactive
